For one molecule, binding results are on record in publication PMC6513865.

Sequences of proteins named here, by UniProt entry; tags and fusion partners are left off. Residues count along the entry.
UniProt Q08345, residues 19-913: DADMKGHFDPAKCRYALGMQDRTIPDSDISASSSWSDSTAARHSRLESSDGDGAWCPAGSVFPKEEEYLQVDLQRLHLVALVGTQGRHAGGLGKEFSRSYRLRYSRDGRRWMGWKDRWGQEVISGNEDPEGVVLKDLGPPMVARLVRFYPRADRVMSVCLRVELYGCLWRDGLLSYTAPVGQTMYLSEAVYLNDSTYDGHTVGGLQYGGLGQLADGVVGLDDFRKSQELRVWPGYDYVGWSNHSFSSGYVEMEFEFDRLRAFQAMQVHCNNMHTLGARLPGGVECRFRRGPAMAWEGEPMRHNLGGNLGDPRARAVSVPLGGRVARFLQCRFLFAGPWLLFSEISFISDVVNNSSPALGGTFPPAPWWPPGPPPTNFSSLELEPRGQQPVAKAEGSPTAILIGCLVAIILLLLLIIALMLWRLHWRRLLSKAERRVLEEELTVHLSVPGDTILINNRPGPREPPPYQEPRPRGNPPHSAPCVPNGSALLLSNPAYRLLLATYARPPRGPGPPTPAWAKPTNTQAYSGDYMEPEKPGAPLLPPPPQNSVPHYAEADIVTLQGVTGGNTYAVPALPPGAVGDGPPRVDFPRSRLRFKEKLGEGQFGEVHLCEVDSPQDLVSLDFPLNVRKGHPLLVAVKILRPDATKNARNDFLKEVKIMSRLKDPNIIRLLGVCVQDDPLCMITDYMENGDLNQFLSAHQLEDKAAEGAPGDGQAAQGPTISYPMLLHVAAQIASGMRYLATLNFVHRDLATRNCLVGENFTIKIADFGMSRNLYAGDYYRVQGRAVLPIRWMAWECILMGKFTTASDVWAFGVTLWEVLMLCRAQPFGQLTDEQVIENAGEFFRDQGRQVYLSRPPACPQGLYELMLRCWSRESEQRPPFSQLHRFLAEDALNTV

No constants are given. Whether binding was seen depends on the method and setting. In cells and extracts the contact can be indirect. A yes stands for co-enrichment or nearness to the bait. Other partners may have been found.

The target of the test is CD167a (Discoidin domain receptor 1), b isoform, overexpressed from pHAGE-V5-CD167a (human) (UniProt Q08345). In words: affinity purification with mass spectrometry; lysate of CD167a-overexpressing T24 cells; anti-CD167a antibody with protein A/G agarose beads, 4 h at 4 °C, beads washed 4 times with RIPA buffer; IP samples analysed by mass spectrometry (iBAQ).

B1: CDC37 (protein, UniProt Q16543 1-378)
chain: MVDYSVWDHIEVSDDEDETHPNIDTASLFRWRHQARVERMEQFQKEKEELDRGCRECKRKVAECQRKLKELEVAEGGKAELERLQAEAQQLRKEERSWEQKLEEMRKKEKSMPWNVDTLSKDGFSKSMVNTKPEKTEEDSEEVREQKHKTFVEKYEKQIKHFGMLRRWDDSQKYLSDNVHLVCEETANYLVIWCIDLEVEEKCALMEQVAHQTIVMQFILELAKSLKVDPRACFRQFFTKIKTADRQYMEGFNDELEAFKERVRGRAKLRIEKAMKEYEEEERKKRLGPGGLDPVEVYESLPEELQKCFDVKDVQMLQDAISKMDPTDAKYHMQRCIDSGLWVPNSKASEAKEGEEAGPGDPLLEAVPKTGDEKDVSV
Take B1: the binding result is given as “binds”.
